Consider 69 sequences from PubChem BioAssay AID1508600 (Functional Genomics Laboratory (NCATS/FGL), 2020).

The campaign covered roughly 53,000 sequences. About 3,700 (7%) were called active.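 How the source made its calls: active means gene knockdowns whose robust z-score for IL-1 alpha signal is at least 2 or at most -2, so actives lie on both sides; inactive means the rest.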 The list shows a part of the results.

This experiment can be described thus: Components of the Cytosolic LPS Sensing Pathway: Gene Identification via Genome-wide siRNA Screen.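 Further: robust z of the log signal after scaling to non-targeting control siRNA wells of the plate.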 The note with it: RAW264.7 macrophages, IL-1a HTRF, actives lie on both sides, screened at 100 nM (by protocol), cells primed 5 h with Pam3CSK4 first. The method in brief:
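RAW264.7 mouse macrophages reverse-transfected with single siRNAs (100 nM final) for 48h, primed with Pam3CSK4 for 5 hours, then transfected with LipidA for 24 hour. Supernatant IL-1a read by HTRF; values normalized to negative-control median, log-transformed robust z-scores.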
With CGCCAUGCUUAGAUUUAAATT against Mettl6, the z-score is inactive: 0.348.

For GGAAGGAAAAGGAUAAAAGTT against Fbxo43, the z-score is inactive: 0.148.

Take GGUGAUCAUUCUGGCAGCUTT against Olfr1215: the z-score was inactive: 0.654.

Turning to GCCAAAGCCGAAUGAGAGGTT against Rtn2, the z-score was inactive: -1.

With GCACAAGGUUCAAAAAGGCTT against Ska3, the z-score was inactive: -1.06.

CGGAUCGGUGCGAGAAUAATT against Gpatch3: the z-score is inactive: 0.61.

GGAUGACUGCAUCUCUCUGTT against Mtfr1l: the z-score was inactive: 0.825.

As to GCACCUUCAGCUAUCUAACTT against Nepn, the z-score was inactive: 0.478.

CCUCUUCCAGAGAUGUAGCTT against Fos: the z-score was inactive: 0.284.

For GGAUCUUGAGUUUACCAAATT against Uqcrc2, the z-score was inactive: 0.379.

In the case of GGAAAAAAAUUCUGAGUUCTT against Rab6a, the z-score was inactive: -0.951.

Take GGCUGUACCCAGCAAAAAGTT against Lca5: the z-score was inactive: 1.35.

On to GGAACUAUCGGCUCUUUCUTT against Zdhhc1, for which the z-score was inactive: -2.

As to GGACUACACAAUUUUCCCUTT against Proz, the z-score was inactive: -1.61.

CCUGGAACAUAGAUGUAUATT against Jmjd4: the z-score was inactive: 0.484.

On to GGAAAUCCUGCUGUAAGGATT against Vmn1r67, for which the z-score is inactive: 0.381.

In the case of GGUUCACCAUCAAGUCGGATT against Src, the z-score is inactive: 0.431.

Take GGAUCAAAUGGAAUGUUCUTT against Ccl25: the z-score was inactive: 0.5.

Take GGGUCUCCUCUUUCCGUAATT against Snx32: the z-score is inactive: -0.356.

As to GGAUGUGCCAAGAUUUGCCTT against Fzd3, the z-score is inactive: 1.26.

GGACACUUAGCAGCAAAGGTT against Lsm7: the z-score was inactive: -0.924.

As to “CCUCAUAUGGAACCUGCAUTT against 8430429K09Rik”, the z-score is inactive: -0.798.

Take GCUCUGAUGGUCUACUGCUTT against Rgs3: the z-score is inactive: -0.347.

On to GCCGAAUCUUCAAGCCUGUTT against Ssh3, for which the z-score is inactive: 0.206.

On to GGCCUUCUUCACCAUUGCUTT against Entpd6, for which the z-score was inactive: -1.07.

Regarding GGAGAAGUUCAGAUCUUUGTT against Tmem266, the z-score was inactive: 0.914.

For GCUUCUUACAGUUUGCCCATT against Vmn1r65, the z-score was inactive: -0.859.

For CCAUAUUGAUCAGUUGAAGTT against Mapk14, the z-score was inactive: -0.158.

Take GGUGAAAAAUGCAUUGAAGTT against Olfr1043: the z-score is inactive: -0.727.

As to GGAGCAGCGACUCAACUUUTT against Stub1, the z-score is inactive: 0.733.

Consider CGAUGGAGUCUGGUAUUCATT against Srpx, for which the z-score is inactive: -1.3.

Consider CGAAAAUAAUGGGUUCGGUTT against Tbx5, for which the z-score is inactive: 0.956.

GGACUGGAAAAUAUCAAACTT against Spata5: the z-score is active: 2.04.

On to CGUAUGAAGGAAUUCCAUGTT against Tex37, for which the z-score is inactive: 0.557.

On to GCUCCAUUAUGCCAGACUATT against Madcam1, for which the z-score is inactive: 0.8.

With GGGUUGAGCAACCGUUUCCTT against Tomm40, the z-score was inactive: -0.285.

Regarding GGAGAGUCGGAAUUUUUAUTT against Sgcg, the z-score was inactive: 1.83.

Turning to GGACUAGAGAAUGUUUCUATT against Rom1, the z-score was inactive: 0.0116.

In the case of GCAAGGUGACAUCAGAAGUTT against Flot2, the z-score is inactive: -0.709.

As for GCCAAUAUCUAUCUACUACTT against Vsig1, the z-score was inactive: -0.231.

Regarding GCAGACACUGUUCGGGAUUTT against Zfp367, the z-score was inactive: -0.0298.

On to GGAGUCGAUUACGUUUAUUTT against Sec14l1, for which the z-score was inactive: -0.0533.

With GGAGUAUCUAACAUCUACUTT against Smarcc2, the z-score is inactive: 1.33.

In the case of GGAUGGUCCAUGUCACAAATT against Scara5, the z-score is inactive: -1.21.

Take GGAGUGCAUGACUCAGCUUTT against Olfr926: the z-score is inactive: -1.54.

On to GCAUCAAGAUUAAGGUUGUTT against Mybpc1, for which the z-score is inactive: 0.0257.

As for CCGAAAGAACAAACAAAGGTT against Mgarp, the z-score is inactive: -0.21.

Take GGACAUGGGCAAAAUGACCTT against Naga: the z-score is inactive: -1.6.

Take GGAAACCUGAUACUAACAATT against Afmid: the z-score was inactive: -1.88.

CCGAAUUUGUAGGAAUCGATT against Cep78: the z-score is inactive: -1.64.

On to GGACUCAAGAGUGAUUUCUTT against Ncoa5, for which the z-score is inactive: 1.27.

Take GCAUUAUGGUAGAAGUGGCTT against Sppl2c: the z-score was inactive: -1.02.

Consider GCUUCAUCUAAAGGAUAAGTT against Rcn2, for which the z-score was inactive: -0.101.

GGGACAAAUAAGAAAACCCTT against Ufc1: the z-score was inactive: -0.989.

GCUUUGAAAUCUGAAUCAGTT against Terf2: the z-score is active: 2.06.

Take GCUACUCGUUGUGAGAACUTT against Ccdc127: the z-score is inactive: -0.722.

For GCUCCUAUCUACAGCUCUUTT against Samd4, the z-score was inactive: 0.0647.

With GCGGCAUGGUUAAGAAUUATT against Chst11, the z-score is inactive: 0.0702.

With GGUCAAACUUCAAUAGACATT against Zkscan6, the z-score is active: 2.01.

Regarding GGUAGCCAGAAAAAAAAAATT against Pkn3, the z-score was inactive: 0.648.

On to CCUGGUAUGCCAAACUUGATT against Ptpa, for which the z-score was inactive: -0.115.

For GGACUUGCCUCCAGAAAAUTT against Tmem167, the z-score is inactive: 0.413.

On to GGCCAAGAGAAUCUAAAGATT against Strn4, for which the z-score is inactive: -0.338.

Consider CGAGUGUUUGGACAACAAUTT against Ldlr, for which the z-score is inactive: 0.391.

For the sequence UGCCGCUCGUGUUUCGGGATT against Hmx2, the z-score was inactive: -1.39.

CCAGCAAGCAAGAUUCCUGTT against Ola1: the z-score is inactive: 0.0919.

On to CGAUCAUCACCAGAACACCTT against Kcnt1, for which the z-score is inactive: -0.695.

As to CGACCAGAGUGGAUACCUGTT against Ocm, the z-score was inactive: 1.98.

With CCAAUGUGAUCUUGAGCCATT against Tmem198b, the z-score was inactive: -1.27.
